From the supplement of paper PMC12819154, “High-throughput peptide-centric local stability assay extends protein–ligand identification to membrane proteins, tissues and bacteria” (Nature Structural & Molecular Biology, 2025)
Some of the results follow. Most values lie at the level of the controls, where differences are scatter.

Protein sequences, listed by entry. Tags and fused reporters are not part of them. Lines headed by an entry give the natural chain unless they say otherwise; changes in a name come on top.
UniProt Q91VH2: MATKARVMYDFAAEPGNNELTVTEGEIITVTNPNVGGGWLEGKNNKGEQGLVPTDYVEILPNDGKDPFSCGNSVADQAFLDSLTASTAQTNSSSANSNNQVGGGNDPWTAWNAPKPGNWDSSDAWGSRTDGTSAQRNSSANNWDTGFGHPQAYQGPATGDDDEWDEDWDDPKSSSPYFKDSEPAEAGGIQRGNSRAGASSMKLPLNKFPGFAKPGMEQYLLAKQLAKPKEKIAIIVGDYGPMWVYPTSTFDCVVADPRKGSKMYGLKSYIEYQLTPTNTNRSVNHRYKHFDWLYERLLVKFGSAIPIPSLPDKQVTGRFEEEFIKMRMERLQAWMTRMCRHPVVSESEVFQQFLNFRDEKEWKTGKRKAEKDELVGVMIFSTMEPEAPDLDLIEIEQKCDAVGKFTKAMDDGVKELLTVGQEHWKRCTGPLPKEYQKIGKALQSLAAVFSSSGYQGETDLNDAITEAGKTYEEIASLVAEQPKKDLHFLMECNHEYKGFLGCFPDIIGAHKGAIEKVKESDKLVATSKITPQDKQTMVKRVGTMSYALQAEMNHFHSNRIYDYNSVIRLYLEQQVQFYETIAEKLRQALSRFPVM
UniProt Q922Y1: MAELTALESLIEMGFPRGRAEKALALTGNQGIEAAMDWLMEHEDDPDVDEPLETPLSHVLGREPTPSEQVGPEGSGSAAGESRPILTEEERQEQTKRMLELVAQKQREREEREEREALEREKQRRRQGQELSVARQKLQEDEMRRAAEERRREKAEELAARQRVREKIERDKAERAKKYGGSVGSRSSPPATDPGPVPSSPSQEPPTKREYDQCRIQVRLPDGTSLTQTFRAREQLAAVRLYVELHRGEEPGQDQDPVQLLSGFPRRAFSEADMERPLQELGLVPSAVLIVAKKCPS
UniProt Q8VDQ1: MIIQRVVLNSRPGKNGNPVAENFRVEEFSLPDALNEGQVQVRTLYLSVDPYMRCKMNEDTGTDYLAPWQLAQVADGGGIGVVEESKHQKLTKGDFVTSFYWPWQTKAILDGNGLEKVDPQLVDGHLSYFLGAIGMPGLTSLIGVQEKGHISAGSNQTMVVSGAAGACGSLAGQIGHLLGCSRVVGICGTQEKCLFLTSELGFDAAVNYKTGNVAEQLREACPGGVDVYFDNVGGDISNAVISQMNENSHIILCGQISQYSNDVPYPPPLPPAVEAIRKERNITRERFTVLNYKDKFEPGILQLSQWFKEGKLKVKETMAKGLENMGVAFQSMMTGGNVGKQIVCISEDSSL
UniProt Q91VC3, whole entry: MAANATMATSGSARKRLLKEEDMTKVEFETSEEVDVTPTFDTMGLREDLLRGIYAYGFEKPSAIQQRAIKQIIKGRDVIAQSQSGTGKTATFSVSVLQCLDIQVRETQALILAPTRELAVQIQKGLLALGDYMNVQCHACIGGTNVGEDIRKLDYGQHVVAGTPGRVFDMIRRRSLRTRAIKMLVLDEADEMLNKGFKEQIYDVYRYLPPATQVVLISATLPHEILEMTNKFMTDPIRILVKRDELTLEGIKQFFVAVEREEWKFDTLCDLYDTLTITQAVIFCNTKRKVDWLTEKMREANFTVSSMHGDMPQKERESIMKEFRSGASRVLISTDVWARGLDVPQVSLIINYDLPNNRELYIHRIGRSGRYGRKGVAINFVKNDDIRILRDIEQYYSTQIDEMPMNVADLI
UniProt Q922R8: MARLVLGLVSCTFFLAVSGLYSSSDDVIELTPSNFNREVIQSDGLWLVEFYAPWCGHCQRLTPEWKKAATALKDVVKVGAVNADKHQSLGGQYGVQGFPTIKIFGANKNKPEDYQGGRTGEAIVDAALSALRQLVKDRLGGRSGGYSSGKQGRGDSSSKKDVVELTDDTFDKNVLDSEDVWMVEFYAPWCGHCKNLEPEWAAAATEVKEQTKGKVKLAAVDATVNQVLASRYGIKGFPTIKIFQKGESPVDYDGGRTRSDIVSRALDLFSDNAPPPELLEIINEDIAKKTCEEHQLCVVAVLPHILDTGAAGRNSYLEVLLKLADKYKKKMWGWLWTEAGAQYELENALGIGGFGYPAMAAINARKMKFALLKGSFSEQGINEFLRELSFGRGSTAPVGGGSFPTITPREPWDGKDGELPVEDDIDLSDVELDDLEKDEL
UniProt Q91YW3: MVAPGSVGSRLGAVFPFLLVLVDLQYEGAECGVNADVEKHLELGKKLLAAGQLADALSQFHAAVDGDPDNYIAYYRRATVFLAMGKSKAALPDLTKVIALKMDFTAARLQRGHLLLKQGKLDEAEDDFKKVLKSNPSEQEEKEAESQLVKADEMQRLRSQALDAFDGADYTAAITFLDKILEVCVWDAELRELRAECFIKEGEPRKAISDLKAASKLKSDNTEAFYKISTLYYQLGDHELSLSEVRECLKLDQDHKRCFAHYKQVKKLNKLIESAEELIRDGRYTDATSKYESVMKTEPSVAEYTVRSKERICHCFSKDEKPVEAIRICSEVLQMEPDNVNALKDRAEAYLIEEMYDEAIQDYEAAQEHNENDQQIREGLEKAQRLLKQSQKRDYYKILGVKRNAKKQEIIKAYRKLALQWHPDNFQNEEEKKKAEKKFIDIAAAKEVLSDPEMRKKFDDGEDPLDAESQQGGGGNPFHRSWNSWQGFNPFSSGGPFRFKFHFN
UniProt Q8VEK3: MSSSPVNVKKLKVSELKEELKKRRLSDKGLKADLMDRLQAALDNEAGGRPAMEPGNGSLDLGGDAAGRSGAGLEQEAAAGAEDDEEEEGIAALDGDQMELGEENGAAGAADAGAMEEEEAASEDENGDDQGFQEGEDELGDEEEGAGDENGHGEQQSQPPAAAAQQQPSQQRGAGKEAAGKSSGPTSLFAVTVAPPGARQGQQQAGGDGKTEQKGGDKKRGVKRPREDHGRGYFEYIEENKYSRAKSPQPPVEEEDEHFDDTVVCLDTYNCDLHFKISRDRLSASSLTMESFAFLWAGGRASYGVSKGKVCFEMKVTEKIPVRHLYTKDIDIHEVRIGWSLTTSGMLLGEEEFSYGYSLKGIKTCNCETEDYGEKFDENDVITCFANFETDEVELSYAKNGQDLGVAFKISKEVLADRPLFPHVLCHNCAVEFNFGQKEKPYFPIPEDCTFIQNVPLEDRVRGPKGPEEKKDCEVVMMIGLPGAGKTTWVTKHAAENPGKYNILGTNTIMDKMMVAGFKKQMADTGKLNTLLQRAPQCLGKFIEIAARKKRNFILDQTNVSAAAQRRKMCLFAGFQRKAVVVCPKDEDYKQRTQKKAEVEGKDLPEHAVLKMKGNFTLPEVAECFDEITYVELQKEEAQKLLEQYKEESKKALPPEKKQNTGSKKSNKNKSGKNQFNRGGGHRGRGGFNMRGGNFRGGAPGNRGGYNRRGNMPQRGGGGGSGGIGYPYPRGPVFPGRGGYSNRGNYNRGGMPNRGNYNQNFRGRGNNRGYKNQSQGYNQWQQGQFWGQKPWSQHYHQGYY
UniProt Q8VCW8: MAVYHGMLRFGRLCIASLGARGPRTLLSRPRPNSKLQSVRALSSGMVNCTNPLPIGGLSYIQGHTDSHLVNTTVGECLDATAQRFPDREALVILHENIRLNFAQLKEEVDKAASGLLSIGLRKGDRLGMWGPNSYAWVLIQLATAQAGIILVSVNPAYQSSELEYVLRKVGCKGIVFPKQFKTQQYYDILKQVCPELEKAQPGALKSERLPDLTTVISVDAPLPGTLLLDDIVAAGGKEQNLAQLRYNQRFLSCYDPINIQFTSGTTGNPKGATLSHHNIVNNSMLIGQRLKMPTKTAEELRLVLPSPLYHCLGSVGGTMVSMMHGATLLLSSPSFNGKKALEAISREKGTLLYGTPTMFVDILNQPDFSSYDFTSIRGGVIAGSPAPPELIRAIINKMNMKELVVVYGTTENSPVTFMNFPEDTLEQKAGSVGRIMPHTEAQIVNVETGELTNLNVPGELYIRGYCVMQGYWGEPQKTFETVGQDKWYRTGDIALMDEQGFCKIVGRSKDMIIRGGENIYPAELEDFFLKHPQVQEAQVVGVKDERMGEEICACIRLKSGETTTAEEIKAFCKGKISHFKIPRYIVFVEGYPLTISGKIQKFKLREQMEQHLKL
UniProt Q91VN4: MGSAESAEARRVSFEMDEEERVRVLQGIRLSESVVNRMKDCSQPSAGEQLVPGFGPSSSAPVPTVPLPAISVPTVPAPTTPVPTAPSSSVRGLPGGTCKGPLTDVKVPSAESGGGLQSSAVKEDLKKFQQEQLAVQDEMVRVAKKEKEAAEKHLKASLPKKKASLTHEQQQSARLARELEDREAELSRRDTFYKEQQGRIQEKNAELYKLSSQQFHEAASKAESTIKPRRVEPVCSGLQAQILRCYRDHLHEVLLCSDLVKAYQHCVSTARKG
UniProt Q91V16: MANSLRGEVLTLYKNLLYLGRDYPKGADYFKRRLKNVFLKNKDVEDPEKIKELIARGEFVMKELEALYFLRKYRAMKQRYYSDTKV
UniProt Q91WE2: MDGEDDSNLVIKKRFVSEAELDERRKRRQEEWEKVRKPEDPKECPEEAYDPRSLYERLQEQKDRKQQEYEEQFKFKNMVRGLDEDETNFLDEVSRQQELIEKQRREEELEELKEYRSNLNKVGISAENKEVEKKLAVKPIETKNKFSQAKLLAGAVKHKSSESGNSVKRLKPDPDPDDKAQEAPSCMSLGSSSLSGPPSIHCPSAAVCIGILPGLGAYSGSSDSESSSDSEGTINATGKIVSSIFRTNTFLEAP
UniProt Q921M3: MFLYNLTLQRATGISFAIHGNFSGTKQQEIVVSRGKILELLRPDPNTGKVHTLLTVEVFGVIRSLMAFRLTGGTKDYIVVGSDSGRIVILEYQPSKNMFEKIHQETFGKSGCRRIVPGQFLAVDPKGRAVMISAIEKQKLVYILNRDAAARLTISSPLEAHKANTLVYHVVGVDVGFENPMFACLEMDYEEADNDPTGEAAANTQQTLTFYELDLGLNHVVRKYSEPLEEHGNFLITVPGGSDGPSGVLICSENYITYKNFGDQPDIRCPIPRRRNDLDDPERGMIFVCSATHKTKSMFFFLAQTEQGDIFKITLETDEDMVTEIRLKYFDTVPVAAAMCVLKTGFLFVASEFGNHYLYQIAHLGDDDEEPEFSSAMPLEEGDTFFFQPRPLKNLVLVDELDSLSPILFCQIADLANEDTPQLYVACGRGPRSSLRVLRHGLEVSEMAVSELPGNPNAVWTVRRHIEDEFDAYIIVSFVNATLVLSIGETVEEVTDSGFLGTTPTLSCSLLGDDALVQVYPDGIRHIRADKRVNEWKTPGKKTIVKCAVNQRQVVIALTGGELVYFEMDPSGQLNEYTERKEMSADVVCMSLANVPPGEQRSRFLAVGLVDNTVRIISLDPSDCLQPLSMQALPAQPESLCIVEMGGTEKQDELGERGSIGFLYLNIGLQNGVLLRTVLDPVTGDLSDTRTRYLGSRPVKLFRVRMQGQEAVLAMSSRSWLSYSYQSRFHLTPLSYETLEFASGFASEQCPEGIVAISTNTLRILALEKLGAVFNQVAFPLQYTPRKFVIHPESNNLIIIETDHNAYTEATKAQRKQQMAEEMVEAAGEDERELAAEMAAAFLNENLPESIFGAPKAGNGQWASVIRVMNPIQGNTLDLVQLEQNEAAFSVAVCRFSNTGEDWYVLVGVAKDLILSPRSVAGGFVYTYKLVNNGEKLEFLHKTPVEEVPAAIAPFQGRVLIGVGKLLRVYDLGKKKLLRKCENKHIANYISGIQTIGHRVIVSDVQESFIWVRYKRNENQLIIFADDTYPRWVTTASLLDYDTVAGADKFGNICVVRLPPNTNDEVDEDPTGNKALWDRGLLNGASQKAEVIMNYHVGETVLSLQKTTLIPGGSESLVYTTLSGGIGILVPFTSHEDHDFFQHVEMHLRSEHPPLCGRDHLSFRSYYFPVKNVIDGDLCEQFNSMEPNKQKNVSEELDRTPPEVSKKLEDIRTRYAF

The targets below were run with CN[C@@H]1C[C@H]2O[C@@](C)([C@@H]1OC)n1c3ccccc3c3c4c(c5c6ccccc6n2c5c31)C(=O)NC4 [staurosporine] (assay: log2 fold change of pooled soluble protein (PISA), ligand vs vehicle (log2 ratio); higher = more thermally stabilized). Conditions: ligand concentration: 20 uM; assay format: PISA pool 52.9/55.5/58.6 C.

**Q.** How did the “log2 fold change of pooled soluble protein” value (“log2 fold change” below) turn out when UniProt Q91ZM2 was run?
**A.** -0.307

**Q.** With UniProt Q91VH2 as the target, how does the “log2 fold change” value read?
**A.** -0.0754

**Q.** Which “log2 fold change” value does the source give for UniProt Q91YQ5 here?
**A.** -0.23

**Q.** How did the “log2 fold change” value turn out when UniProt Q922Y1 was run?
**A.** -0.0469

**Q.** UniProt Q8VDQ1 was tested. Which “log2 fold change” value did it give?
**A.** -0.0472

**Q.** Which “log2 fold change” value does the source give for UniProt Q8VE96 here?
**A.** 0.045

**Q.** How did the “log2 fold change” value turn out when UniProt Q91VC3 was run?
**A.** 0.0631

**Q.** With UniProt Q91V92 as the target, how does the “log2 fold change” value read?
**A.** -0.0416

**Q.** For UniProt Q924Z4, which “log2 fold change” value is on record?
**A.** -0.251

**Q.** UniProt Q922R8 was tested. Which “log2 fold change” value did it give?
**A.** -0.303

**Q.** How did the “log2 fold change” value turn out when UniProt Q91X72 was run?
**A.** 0.0562

**Q.** With UniProt Q91Z40 as the target, how does the “log2 fold change” value read?
**A.** -0.0447

**Q.** UniProt Q91YW3 was tested. Which “log2 fold change” value did it give?
**A.** -0.125

**Q.** For UniProt Q8VDD5, which “log2 fold change” value is on record?
**A.** -0.02

**Q.** Which “log2 fold change” value does the source give for UniProt Q8VI36 here?
**A.** -0.0626

**Q.** For UniProt Q8VEK3, which “log2 fold change” value is on record?
**A.** -0.121

**Q.** With UniProt Q99J39 as the target, how does the “log2 fold change” value read?
**A.** 0.0866

**Q.** UniProt Q8VCW8 was tested. Which “log2 fold change” value did it give?
**A.** -0.101

**Q.** With UniProt Q99J36 as the target, how does the “log2 fold change” value read?
**A.** -0.0971

**Q.** With UniProt Q91VN4 as the target, how does the “log2 fold change” value read?
**A.** 0.116

**Q.** How did the “log2 fold change” value turn out when UniProt Q921F4 was run?
**A.** -0.185

**Q.** How did the “log2 fold change” value turn out when UniProt Q8VED9 was run?
**A.** 0.0715

**Q.** For UniProt Q921T2, which “log2 fold change” value is on record?
**A.** 0.0119

**Q.** How did the “log2 fold change” value turn out when UniProt Q91YP3 was run?
**A.** -0.153

**Q.** UniProt Q922V4 was tested. Which “log2 fold change” value did it give?
**A.** -0.0579

**Q.** For UniProt Q8VDM4, which “log2 fold change” value is on record?
**A.** -0.086

**Q.** UniProt Q8VE95 was tested. Which “log2 fold change” value did it give?
**A.** -0.0471

**Q.** For UniProt Q91VU0, which “log2 fold change” value is on record?
**A.** -0.0861

**Q.** Which “log2 fold change” value does the source give for UniProt Q8WUR0 here?
**A.** -0.0646

**Q.** With UniProt Q91XF0 as the target, how does the “log2 fold change” value read?
**A.** 0.0542

**Q.** UniProt Q920A5 was tested. Which “log2 fold change” value did it give?
**A.** -0.0768

**Q.** UniProt Q91V16 was tested. Which “log2 fold change” value did it give?
**A.** 0.000228

**Q.** How did the “log2 fold change” value turn out when UniProt Q91WE2 was run?
**A.** 0.214

**Q.** How did the “log2 fold change” value turn out when UniProt Q922Q1 was run?
**A.** -0.02

**Q.** UniProt Q91VC4 was tested. Which “log2 fold change” value did it give?
**A.** -0.0298

**Q.** For UniProt Q921M3, which “log2 fold change” value is on record?
**A.** -0.0928

**Q.** With UniProt Q93092 as the target, how does the “log2 fold change” value read?
**A.** -0.0627
